Test results reported in publication PMC2734247, “The Chlamydia Type III Secretion System C-ring Engages a Chaperone-Effector Protein Complex” (PLoS Pathogens, 2009).

Legend:
Test in all cases: two-hybrid; Matchmaker system; array of yeast with C. trachomatis ORFs in pGAD424 (Gal4AD) mated against yeast with ORFs in pGBT9 (Gal4DBD); growth of diploids on SC media lacking histidine or adenine over 4 days
Ct584 (C. trachomatis) = target: T1, Ct584 (C. trachomatis) (UniProt O84588)
T1 sequence: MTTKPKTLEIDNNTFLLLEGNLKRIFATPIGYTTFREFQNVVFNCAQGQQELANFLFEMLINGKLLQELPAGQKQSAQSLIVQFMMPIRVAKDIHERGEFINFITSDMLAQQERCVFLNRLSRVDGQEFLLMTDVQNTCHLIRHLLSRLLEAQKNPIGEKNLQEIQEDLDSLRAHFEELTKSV

Ct663 (C. trachomatis) = target: T2, Ct663 (C. trachomatis) (UniProt O84670)
T2 sequence: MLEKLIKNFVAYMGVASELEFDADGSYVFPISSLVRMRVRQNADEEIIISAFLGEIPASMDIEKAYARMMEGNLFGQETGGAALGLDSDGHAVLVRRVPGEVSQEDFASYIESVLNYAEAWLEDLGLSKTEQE

CdsQ (C. trachomatis) = target: CdsQ (C. trachomatis)

CdsF (C. trachomatis)
binding (Ct584 (C. trachomatis)): binds

Scc1 (C. trachomatis)
binding (Ct663 (C. trachomatis)): binds

B1: Ct677 (protein, UniProt O84684 1-179)
chain: MTLASAEKEMVGVLTFFQKETRGFRTGKAHPALVETVTVEVYGTTMRLSDIASISVSDMRQLLLSPYDAGTVSAISKGILAANLNLQPIVEGATVRINVPEPTEEYRREVIKQLKRKSEEAKVAIRNIRRTFNDRLKKDDNLTEDAVKSLEKKIQELTDKFCKQIEELAKQKEAELATV
binding (CdsQ (C. trachomatis)): binds

No constants are given. Whether binding was seen depends on the method and setting. Binding can be weak; no strength is given.
